Results are given in words; binding and its absence hold for the method and conditions named. Some entries that bind do so weakly or less than the wild type.
Tests used:
[1] = molecular target: T1, mouse BR3 (form in the mapping assay not stated) (mouse) (UniProt Q9D8D0); assay: epitope mapping by competition (FIG. 22)
T1 sequence (looked up): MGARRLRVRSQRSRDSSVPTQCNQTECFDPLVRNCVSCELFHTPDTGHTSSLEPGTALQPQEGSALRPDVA

Chains of the proteins cited; added tags and fusions are not shown. Lines headed by an entry give the natural chain unless they say otherwise; changes in a name come on top.
UniProt Q96RJ3: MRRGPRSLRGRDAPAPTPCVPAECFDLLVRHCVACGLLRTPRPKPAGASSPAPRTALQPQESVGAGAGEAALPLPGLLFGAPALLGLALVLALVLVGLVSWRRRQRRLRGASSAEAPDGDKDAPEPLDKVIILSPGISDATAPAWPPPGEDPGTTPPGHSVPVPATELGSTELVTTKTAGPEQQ

[2] = molecular target: T1, mouse BR3 (form in the mapping assay not stated) (mouse); assay: competition ELISA on murine BR3 against biotinylated V3-1m
[3] = molecular target: human BR3 extracellular domain (human) (UniProt Q96RJ3); assay: SPR with Fab
[4] = molecular target: human BR3 extracellular domain (human) (UniProt Q96RJ3); assay: SPR with expressed Fab

B1: V3-1m (antibody, mouse IgG2a, V domains shown)
VH: EVQLVESGGGLVQPGGSLRLSCAASGFTISSNSIHWVRQAPGKGLEWVAWITPSDGNTDYADSVKGRFTISADTSKNTAYLQMNSLRAEDTAVYYCARRVCYNRLGVCAGGMDYWGQGTLVTVSS
VL: DIQMTQSPSSLSASVGDRVTITCRASQDVSTAVAWYQQKPGKAPKLLIYSASFLYSGVPSRFSGSGSGTDFTLTISSLQPEDFATYYCQQSRITPPTFGQGTKVEIKR
binding [1]: binds | binding [2]: binds

B2: Hu2.1-30 Fab (Fab, V domains shown)
VH: EVQLVESGGGLVQPGGSLRLSCAASGDSITRGYWNWVRQAPGKGLEWVGYINYSGTTYYNPSLKSRFTISRDTSKNTFYLQMNSLRAEDTAVYYCANLNYYGAMDYWGQGTLVTVSS
VL: DIQMTQSPSSLSASVGDRVTITCRASESVDDYGISFMHWYQQKPGKAPKLLIYRASDLESGVPSRFSGSGSGTDFTLTISSLQPEDFATYYCQQTSKDPWTFGQGTKVEIKR
binding [3]: binds | binding [4]: binds
